From article PMC6952110, “A divergent CheW confers plasticity to nucleoid-associated chemosensory arrays” (PLoS Genetics, 2019)
No constants are given. Whether binding was seen depends on the method and setting. In cells and extracts the contact can be indirect. Some results given as binding are weak or reduced against the parent protein; the word gives no strength. Where a sequence is shown, tags or fusion partners need not be part of it.

What was measured:
GST-FrzA (M. xanthus) = biological target: T1, GST-FrzA (M. xanthus) (UniProt P43498); test: pull-down; GST-affinity chromatography co-purification; E. coli cells expressing each protein mixed one to one and lysed together; 50 mM TrisHCl pH 8, 300 mM NaCl; eluted with 10 mM reduced glutathione
T1 sequence: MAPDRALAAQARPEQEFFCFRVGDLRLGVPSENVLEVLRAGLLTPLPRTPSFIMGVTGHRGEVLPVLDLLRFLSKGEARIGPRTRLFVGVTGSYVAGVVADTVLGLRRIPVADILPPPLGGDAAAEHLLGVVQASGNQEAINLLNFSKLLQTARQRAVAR

GST-FrzB (M. xanthus) = biological target: T2, GST-FrzB (M. xanthus) (UniProt P43499); test: as above
T2 sequence: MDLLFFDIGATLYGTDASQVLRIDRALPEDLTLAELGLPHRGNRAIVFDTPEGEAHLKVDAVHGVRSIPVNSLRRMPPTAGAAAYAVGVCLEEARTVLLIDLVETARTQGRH

B1: 6His-FrzCD (receptor, UniProt P43500 1-417)
chain: MSLDTPNEKPAGKARARKAPASKAGATNAASTSSSTKAITDTLLTVLSGNLQARVPKELVGESGVELAHLLNQVLDQFAASEHRKHVAAQEIDQALDALIGLVREGDLSRWNTTTEDPQLGPLLEGFGKVIETLRTFVREINEAALRLSSSANQVLAASTQHETSSTEQAAAIHETTATMEELKHASAQIAENAGSVARVAEETLGAARAGRGAIGEFIQAMQQIRSDGVAVADSIAKLSKRVERIGTVVEVIDEIADRSDLLALNAALEGSRAGEAGKGFSIVAAEMRRLAENVLDSTKEIKNLITEIREATAAAAGAAEASKSATESGEKLGAVAAQAVEGILAGVQETSDAARVINLATQQQRTATEQVVASMAEIEDVTRQTTQASKQATGAAAELTQLAGRLAELIKRFKAD
binding (GST-FrzA (M. xanthus)): binds
binding (GST-FrzB (M. xanthus)): binds
